In the supplement of paper PMC6411743:
± gives the standard deviation of the averaged measurements. Only a part is listed here, and it is no random draw.

Protein sequences, listed by entry. Tags and fused reporters are not part of them. Lines headed by an entry give the natural chain unless they say otherwise; changes in a name come on top.
UniProt Q7Z6V5: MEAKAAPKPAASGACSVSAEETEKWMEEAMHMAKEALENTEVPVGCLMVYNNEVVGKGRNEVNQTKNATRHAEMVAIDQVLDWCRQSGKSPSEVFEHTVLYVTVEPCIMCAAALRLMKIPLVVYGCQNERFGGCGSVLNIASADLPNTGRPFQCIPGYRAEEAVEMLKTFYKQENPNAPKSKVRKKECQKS
UniProt Q86XI2: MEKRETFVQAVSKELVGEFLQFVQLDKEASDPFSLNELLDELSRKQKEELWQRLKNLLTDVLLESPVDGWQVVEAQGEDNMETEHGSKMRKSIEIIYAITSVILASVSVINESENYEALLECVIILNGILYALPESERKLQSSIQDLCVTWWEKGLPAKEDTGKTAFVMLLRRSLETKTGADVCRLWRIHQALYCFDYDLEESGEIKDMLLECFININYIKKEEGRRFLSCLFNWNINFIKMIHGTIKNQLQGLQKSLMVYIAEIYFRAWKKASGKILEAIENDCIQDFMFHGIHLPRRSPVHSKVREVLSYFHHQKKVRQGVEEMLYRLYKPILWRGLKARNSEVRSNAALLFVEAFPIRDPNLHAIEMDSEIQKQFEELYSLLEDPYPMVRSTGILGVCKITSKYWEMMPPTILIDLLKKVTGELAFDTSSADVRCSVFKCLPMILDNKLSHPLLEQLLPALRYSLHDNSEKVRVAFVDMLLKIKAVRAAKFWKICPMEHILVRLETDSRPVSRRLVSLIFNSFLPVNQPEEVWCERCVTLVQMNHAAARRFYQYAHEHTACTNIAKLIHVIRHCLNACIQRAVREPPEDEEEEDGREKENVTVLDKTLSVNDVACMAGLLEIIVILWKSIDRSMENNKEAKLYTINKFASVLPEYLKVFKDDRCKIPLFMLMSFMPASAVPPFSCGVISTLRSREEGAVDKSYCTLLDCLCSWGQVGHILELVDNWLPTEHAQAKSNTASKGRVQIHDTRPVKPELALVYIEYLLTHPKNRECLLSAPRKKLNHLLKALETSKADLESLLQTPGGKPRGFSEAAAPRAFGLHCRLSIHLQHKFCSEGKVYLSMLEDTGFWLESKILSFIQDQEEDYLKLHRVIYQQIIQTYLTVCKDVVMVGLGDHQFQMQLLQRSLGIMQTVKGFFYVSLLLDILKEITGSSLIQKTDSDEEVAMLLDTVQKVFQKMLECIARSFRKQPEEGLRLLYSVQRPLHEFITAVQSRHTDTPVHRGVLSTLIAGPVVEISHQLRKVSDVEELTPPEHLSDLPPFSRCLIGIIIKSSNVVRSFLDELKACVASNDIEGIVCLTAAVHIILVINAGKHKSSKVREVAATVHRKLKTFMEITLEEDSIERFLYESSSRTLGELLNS
UniProt Q7Z7G8: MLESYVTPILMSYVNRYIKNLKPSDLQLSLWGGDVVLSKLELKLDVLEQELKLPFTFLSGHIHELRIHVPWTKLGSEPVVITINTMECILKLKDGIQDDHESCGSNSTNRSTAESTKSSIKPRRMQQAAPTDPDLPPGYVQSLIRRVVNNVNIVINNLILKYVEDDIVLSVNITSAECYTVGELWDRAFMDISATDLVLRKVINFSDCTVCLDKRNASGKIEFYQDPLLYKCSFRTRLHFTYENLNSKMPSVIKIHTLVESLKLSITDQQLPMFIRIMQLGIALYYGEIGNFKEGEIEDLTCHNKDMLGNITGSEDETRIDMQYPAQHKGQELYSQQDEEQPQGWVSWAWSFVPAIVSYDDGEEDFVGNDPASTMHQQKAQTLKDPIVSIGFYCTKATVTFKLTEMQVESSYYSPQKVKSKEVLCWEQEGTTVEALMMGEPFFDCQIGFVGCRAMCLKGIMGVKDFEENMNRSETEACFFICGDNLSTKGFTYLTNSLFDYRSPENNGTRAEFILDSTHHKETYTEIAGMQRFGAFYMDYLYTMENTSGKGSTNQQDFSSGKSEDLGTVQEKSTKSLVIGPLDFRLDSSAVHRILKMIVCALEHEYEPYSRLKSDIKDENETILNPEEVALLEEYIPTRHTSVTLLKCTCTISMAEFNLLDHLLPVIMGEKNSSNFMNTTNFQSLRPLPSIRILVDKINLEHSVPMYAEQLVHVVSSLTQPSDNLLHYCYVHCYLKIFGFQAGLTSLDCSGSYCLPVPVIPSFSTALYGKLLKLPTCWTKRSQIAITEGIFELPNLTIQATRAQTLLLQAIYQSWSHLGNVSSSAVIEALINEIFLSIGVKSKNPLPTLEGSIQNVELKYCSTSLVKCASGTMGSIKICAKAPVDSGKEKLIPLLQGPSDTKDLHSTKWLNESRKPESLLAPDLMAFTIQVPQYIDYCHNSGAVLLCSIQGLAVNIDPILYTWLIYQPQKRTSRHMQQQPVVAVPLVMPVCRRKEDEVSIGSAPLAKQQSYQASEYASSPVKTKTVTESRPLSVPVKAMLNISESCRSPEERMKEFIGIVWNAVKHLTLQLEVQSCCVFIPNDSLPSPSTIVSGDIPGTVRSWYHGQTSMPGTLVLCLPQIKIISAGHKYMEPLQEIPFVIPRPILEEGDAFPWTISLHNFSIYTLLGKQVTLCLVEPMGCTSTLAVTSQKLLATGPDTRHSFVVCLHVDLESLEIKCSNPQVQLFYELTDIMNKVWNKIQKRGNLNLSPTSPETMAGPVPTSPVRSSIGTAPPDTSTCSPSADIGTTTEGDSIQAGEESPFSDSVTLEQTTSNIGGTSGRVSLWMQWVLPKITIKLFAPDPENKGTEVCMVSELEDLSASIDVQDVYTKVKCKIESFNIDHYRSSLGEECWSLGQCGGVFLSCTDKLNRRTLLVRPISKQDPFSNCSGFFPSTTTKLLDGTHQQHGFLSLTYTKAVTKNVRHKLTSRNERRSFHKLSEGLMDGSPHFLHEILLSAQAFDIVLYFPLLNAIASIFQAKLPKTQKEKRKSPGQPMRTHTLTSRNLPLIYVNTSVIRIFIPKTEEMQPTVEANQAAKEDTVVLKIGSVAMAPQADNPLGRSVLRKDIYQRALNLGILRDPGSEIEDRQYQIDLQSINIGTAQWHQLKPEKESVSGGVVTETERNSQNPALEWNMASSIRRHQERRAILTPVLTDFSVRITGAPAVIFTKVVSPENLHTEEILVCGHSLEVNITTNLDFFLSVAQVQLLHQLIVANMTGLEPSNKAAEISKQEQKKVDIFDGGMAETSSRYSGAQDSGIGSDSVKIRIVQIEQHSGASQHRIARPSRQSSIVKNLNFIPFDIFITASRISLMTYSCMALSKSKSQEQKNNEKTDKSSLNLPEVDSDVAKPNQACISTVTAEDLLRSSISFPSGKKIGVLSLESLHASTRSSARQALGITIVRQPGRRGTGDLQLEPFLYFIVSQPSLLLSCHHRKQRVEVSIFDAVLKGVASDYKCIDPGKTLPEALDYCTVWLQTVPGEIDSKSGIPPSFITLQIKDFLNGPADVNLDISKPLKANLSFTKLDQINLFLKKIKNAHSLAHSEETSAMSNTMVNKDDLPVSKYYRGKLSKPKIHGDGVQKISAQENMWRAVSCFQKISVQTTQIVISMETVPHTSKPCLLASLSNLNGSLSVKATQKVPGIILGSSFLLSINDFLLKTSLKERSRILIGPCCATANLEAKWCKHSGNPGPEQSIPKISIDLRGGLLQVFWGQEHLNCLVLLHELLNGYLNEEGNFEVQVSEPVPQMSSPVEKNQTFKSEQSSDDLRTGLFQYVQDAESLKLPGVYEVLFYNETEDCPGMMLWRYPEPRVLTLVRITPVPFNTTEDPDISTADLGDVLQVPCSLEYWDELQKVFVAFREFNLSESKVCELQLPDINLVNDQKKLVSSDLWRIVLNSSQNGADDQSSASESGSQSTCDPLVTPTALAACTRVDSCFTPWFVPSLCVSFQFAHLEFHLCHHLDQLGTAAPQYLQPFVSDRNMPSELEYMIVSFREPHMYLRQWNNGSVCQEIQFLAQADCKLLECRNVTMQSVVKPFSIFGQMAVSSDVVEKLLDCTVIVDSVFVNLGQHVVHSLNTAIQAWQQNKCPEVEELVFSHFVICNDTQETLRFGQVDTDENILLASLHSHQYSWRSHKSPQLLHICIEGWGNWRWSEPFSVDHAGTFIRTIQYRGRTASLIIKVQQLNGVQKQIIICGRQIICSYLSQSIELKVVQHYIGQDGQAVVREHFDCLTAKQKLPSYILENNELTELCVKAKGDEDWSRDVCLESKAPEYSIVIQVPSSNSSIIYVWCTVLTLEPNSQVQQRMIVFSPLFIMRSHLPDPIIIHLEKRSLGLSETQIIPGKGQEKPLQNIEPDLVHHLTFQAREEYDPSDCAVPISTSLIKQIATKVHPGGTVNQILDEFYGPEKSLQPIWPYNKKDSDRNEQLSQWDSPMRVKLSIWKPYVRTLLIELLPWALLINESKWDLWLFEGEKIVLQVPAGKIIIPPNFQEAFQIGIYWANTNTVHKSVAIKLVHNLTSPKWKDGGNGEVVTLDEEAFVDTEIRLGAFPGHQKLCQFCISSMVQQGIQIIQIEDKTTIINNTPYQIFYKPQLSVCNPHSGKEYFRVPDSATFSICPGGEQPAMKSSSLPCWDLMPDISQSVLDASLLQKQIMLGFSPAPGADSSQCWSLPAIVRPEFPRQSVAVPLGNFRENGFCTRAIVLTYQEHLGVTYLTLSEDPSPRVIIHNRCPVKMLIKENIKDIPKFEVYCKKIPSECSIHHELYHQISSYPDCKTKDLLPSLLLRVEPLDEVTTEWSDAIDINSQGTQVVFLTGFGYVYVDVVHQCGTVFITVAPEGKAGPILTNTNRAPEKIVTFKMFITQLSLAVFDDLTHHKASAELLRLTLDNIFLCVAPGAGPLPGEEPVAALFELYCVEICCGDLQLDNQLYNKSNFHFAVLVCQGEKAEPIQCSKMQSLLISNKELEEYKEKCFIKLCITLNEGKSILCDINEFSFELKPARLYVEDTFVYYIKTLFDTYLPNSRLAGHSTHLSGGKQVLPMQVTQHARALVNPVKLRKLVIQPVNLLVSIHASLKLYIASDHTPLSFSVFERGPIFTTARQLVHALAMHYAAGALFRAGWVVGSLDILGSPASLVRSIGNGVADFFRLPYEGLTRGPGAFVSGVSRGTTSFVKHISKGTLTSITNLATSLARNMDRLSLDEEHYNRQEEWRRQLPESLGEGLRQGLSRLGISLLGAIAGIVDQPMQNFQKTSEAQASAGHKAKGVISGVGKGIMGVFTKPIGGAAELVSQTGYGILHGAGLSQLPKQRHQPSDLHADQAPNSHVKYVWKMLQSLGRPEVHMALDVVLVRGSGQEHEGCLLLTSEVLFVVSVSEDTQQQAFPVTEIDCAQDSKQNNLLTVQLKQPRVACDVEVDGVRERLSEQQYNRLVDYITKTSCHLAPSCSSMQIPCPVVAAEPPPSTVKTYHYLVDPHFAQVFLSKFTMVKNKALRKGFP
UniProt Q6PI48: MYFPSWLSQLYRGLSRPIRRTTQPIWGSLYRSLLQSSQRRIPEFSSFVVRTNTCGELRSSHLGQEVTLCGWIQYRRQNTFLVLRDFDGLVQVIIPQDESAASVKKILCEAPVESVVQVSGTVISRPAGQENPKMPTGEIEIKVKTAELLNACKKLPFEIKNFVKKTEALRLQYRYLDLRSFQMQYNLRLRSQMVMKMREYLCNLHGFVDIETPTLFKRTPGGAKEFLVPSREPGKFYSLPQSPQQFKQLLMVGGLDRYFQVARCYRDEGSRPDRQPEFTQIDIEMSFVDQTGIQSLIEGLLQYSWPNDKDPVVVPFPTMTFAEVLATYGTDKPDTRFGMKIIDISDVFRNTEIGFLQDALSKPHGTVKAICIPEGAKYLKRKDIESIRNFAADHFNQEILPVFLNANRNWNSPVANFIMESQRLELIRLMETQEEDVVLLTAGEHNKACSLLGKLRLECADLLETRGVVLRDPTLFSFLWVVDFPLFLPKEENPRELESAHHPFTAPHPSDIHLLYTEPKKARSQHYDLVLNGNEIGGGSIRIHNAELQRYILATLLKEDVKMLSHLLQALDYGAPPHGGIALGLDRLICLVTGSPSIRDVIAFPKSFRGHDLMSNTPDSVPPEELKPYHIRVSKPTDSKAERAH
UniProt Q7L9B9: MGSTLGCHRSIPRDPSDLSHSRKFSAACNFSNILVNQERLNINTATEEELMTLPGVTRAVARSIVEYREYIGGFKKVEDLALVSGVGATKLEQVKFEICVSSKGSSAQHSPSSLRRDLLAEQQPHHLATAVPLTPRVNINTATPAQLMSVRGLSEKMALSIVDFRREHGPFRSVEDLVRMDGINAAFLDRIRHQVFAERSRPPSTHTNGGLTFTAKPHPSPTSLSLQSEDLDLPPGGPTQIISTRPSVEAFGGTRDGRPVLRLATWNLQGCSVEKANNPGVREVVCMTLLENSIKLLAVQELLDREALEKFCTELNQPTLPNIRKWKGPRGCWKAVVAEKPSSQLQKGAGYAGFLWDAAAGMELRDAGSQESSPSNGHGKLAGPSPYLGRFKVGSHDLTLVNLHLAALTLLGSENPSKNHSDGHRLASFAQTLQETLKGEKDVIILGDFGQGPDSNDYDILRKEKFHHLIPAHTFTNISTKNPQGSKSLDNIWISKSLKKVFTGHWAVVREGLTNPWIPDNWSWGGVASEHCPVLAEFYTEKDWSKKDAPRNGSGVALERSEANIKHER

Compound: Nc1ncnc2c1ncn2[C@@H]1O[C@H](COP(=O)(O)OP(=O)(O)OP(=O)(O)O)[C@@H](O)[C@H]1O [adenosine triphosphate]
Experiment: NP40-soluble protein abundance relative to vehicle (solubility fold change) (ratio); higher = more soluble protein in presence of ATP
Method in brief: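 Data come from three independent experiments in which Dounce-homogenised Jurkat crude lysate was treated at eight concentrations from 0.1 to 10 mM. Treatment ran 10 min at room temperature and then 3 min at 37 °C, after which 0.8% NP40 and benzonase were added for 60 min at 4 °C before ultracentrifugation. The supernatant underwent TMT labelling and LC-MS/MS, and vsn-normalised intensities were expressed as fold change against the detergent-processed vehicle in each replicate.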

Target	NP40-soluble protein abundance (concentration: 1mM)	NP40-soluble protein abundance (concentration: 2mM)	NP40-soluble protein abundance (concentration: 4mM)	NP40-soluble protein abundance (concentration: 6mM)	NP40-soluble protein abundance (concentration: 8mM)	NP40-soluble protein abundance (concentration: 10mM)
ADAT2 (UniProt Q7Z6V5)	0.922 ± 0.092	0.959 ± 0.065	0.936 ± 0.016	0.958 ± 0.07	0.932 ± 0.025	0.893 ± 0.11
PALB2 (UniProt Q86YC2)	1.12 ± 0.29	1.08 ± 0.27	1 ± 0.14	1.06 ± 0.23	1.11 ± 0.15	1.07 ± 0.23
NCAPG2 (UniProt Q86XI2)	1.06 ± 0.13	1.09 ± 0.081	1.06 ± 0.067	0.997 ± 0.038	1.09 ± 0.017	1.1 ± 0.009
ANKRD11 (UniProt Q6UB99)	0.952 ± 0.073	1.01 ± 0.043	1.02 ± 0.024	1.03 ± 0.072	0.994 ± 0.033	1.02 ± 0.034
ZDHHC13 (UniProt Q8IUH4)	0.971 ± 0.09	0.965 ± 0.084	0.925 ± 0.075	0.906 ± 0.062	0.979 ± 0.11	0.937 ± 0.046
METAP1D (UniProt Q6UB28)	1.66 ± 0.89	1.05 ± 0.094	0.96 ± 0.17	1.02 ± 0.072	1 ± 0.041	0.964 ± 0.097
UniProt Q7Z7G8 and related entries	0.841 ± 0.083	0.778 ± 0.055	0.804 ± 0.01	0.817 ± 0.0084	0.795 ± 0.15	0.823 ± 0.07
UniProt Q86XK3 and related entries	1.11 ± 0.051	1.07 ± 0.037	1.18 ± 0.095	1.09 ± 0.12	1.07 ± 0.039	1.017 ± 0.0071
RBBP6 (UniProt Q7Z6E9)	1.14 ± 0.069	1.17 ± 0.054	1.22 ± 0.067	1.35 ± 0.056	1.35 ± 0.064	1.36 ± 0.045
UniProt Q7L0Y3	1.02 ± 0.053	1.01 ± 0.025	0.998 ± 0.017	0.983 ± 0.059	1.03 ± 0.026	1.06 ± 0.031
UniProt Q7Z2K6 and related entries	1.16 ± 0.19	1.03 ± 0.019	1.08 ± 0.25	1.09 ± 0.19	1.03 ± 0.21	0.997 ± 0.062
UniProt Q86UB9 and related entries	1.06 ± 0.18	1.01 ± 0.14	1.07 ± 0.097	1.11 ± 0.026	1.11 ± 0.086	1.11 ± 0.16
UniProt Q6PIJ6 and related entries	1.01 ± 0.066	0.9966 ± 0.0042	1.05 ± 0.03	0.973 ± 0.053	1.041 ± 0.0037	1.05 ± 0.068
UniProt Q71RC2 and related entries	1.08 ± 0.067	1.1 ± 0.039	1.19 ± 0.05	1.33 ± 0.13	1.3 ± 0.048	1.42 ± 0.095
UniProt Q75N03 and related entries	1.04 ± 0.098	1.03 ± 0.069	1.05 ± 0.067	1.08 ± 0.083	1.07 ± 0.11	1.07 ± 0.13
UniProt Q86YS7 and related entries	1.01 ± 0.029	1.01 ± 0.027	1.02 ± 0.062	1 ± 0.014	0.996 ± 0.0069	1 ± 0.019
RAB43 (UniProt Q86YS6)	1 ± 0.11	0.988 ± 0.12	1 ± 0.069	0.958 ± 0.14	0.996 ± 0.056	1 ± 0.048

Target	NP40-soluble protein abundance (concentration: 1mM)	NP40-soluble protein abundance (concentration: 2mM)	NP40-soluble protein abundance (concentration: 4mM)	NP40-soluble protein abundance (concentration: 6mM)	NP40-soluble protein abundance (concentration: 8mM)	NP40-soluble protein abundance (concentration: 10mM)
UniProt Q7Z3E2	0.967 ± 0.08	0.977 ± 0.023	1.02 ± 0.062	1.04 ± 0.037	0.956 ± 0.077	0.984 ± 0.066
UniProt Q6PII5-2|B4DED4	1.11 ± 0.076	1.12 ± 0.044	1.03 ± 0.035	1.02 ± 0.16	1.08 ± 0.085	1.02 ± 0.068
ARHGAP30 (UniProt Q7Z6I6)	0.971 ± 0.07	0.977 ± 0.029	0.979 ± 0.038	0.996 ± 0.039	0.958 ± 0.029	0.966 ± 0.031
STXBP4 (UniProt Q6ZWJ1)	0.966 ± 0.08	0.998 ± 0.048	0.977 ± 0.042	1.01 ± 0.04	0.966 ± 0.045	0.977 ± 0.043
UniProt Q8IUI8 and related entries	1.02 ± 0.029	0.998 ± 0.05	0.99 ± 0.058	0.983 ± 0.072	0.987 ± 0.052	0.968 ± 0.055
UniProt Q86UX7 and related entries	0.996 ± 0.14	0.999 ± 0.11	0.988 ± 0.086	0.917 ± 0.15	0.998 ± 0.059	0.997 ± 0.044
UniProt Q8IUQ4 and related entries	1.03 ± 0.062	0.995 ± 0.048	1.029 ± 0.0098	0.915 ± 0.1	1.04 ± 0.079	0.975 ± 0.08
UniProt Q86V48 and related entries	0.991 ± 0.06	1.02 ± 0.054	1.08 ± 0.063	1.19 ± 0.083	1.17 ± 0.047	1.23 ± 0.037
UniProt Q7RTN6 and related entries	0.937 ± 0.16	0.964 ± 0.1	0.912 ± 0.27	0.877 ± 0.17	0.98 ± 0.11	0.993 ± 0.077
DARS2 (UniProt Q6PI48)	0.971 ± 0.057	0.98 ± 0.07	0.98 ± 0.045	0.946 ± 0.11	1.02 ± 0.048	0.978 ± 0.053
EEPD1 (UniProt Q7L9B9)	1.03 ± 0.1	1.07 ± 0.13	1.06 ± 0.064	1.01 ± 0.087	0.995 ± 0.083	1.06 ± 0.032
RABEPK (UniProt Q7Z6M1)	0.991 ± 0.024	0.967 ± 0.043	1.02 ± 0.044	0.999 ± 0.05	0.989 ± 0.055	0.969 ± 0.052
SAMD1 (UniProt Q6SPF0)	0.933 ± 0.04	0.951 ± 0.095	0.951 ± 0.099	0.948 ± 0.12	0.93 ± 0.068	0.9 ± 0.035
UniProt Q7Z2E3 and related entries	0.997 ± 0.059	1.04 ± 0.07	1.07 ± 0.051	1.1 ± 0.087	1.16 ± 0.038	1.19 ± 0.1
UniProt Q7LBC6	0.982 ± 0.051	0.989 ± 0.012	0.9627 ± 0.0039	1 ± 0.01	0.95 ± 0.034	0.976 ± 0.025
UniProt Q7Z3K6 and related entries	1.08 ± 0.05	1.109 ± 0.008	1.14 ± 0.11	1.11 ± 0.035	1.13 ± 0.049	1.14 ± 0.029
KCTD9 (UniProt Q7L273)	0.941 ± 0.043	0.944 ± 0.014	0.934 ± 0.019	0.981 ± 0.029	0.904 ± 0.032	0.928 ± 0.041

Reformatted as comma-separated lines: entries from further up
Target,NP40-soluble protein abundance (concentration: 1mM),NP40-soluble protein abundance (concentration: 2mM),NP40-soluble protein abundance (concentration: 4mM),NP40-soluble protein abundance (concentration: 6mM),NP40-soluble protein abundance (concentration: 8mM),NP40-soluble protein abundance (concentration: 10mM)
UniProt Q86XK3 and related entries,1.11 ± 0.051,1.07 ± 0.037,1.18 ± 0.095,1.09 ± 0.12,1.07 ± 0.039,1.017 ± 0.0071
RBBP6 (UniProt Q7Z6E9),1.14 ± 0.069,1.17 ± 0.054,1.22 ± 0.067,1.35 ± 0.056,1.35 ± 0.064,1.36 ± 0.045
UniProt Q7L0Y3,1.02 ± 0.053,1.01 ± 0.025,0.998 ± 0.017,0.983 ± 0.059,1.03 ± 0.026,1.06 ± 0.031
UniProt Q7Z2K6 and related entries,1.16 ± 0.19,1.03 ± 0.019,1.08 ± 0.25,1.09 ± 0.19,1.03 ± 0.21,0.997 ± 0.062
UniProt Q86UB9 and related entries,1.06 ± 0.18,1.01 ± 0.14,1.07 ± 0.097,1.11 ± 0.026,1.11 ± 0.086,1.11 ± 0.16
UniProt Q6PIJ6 and related entries,1.01 ± 0.066,0.9966 ± 0.0042,1.05 ± 0.03,0.973 ± 0.053,1.041 ± 0.0037,1.05 ± 0.068
UniProt Q71RC2 and related entries,1.08 ± 0.067,1.1 ± 0.039,1.19 ± 0.05,1.33 ± 0.13,1.3 ± 0.048,1.42 ± 0.095
UniProt Q75N03 and related entries,1.04 ± 0.098,1.03 ± 0.069,1.05 ± 0.067,1.08 ± 0.083,1.07 ± 0.11,1.07 ± 0.13
